Measured values taken from patent EP2362225A1 (Charité Universitätsmedizin Berlin, priority 2010, dated 2011).
Part of at least one peptide drawing is inferred or uncertain, most often the ends. Where no end group is shown, it is not given here.

Protein sequences, listed by entry. Tags and fused reporters are not part of them. Lines headed by an entry give the natural chain unless they say otherwise; changes in a name come on top.
UniProt P28072: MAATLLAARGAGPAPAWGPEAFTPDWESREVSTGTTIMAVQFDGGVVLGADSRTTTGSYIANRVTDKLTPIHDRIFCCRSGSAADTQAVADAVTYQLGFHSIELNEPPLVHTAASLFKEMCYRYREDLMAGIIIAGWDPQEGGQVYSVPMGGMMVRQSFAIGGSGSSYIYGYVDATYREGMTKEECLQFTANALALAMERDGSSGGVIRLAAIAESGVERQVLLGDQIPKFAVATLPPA
UniProt P28074: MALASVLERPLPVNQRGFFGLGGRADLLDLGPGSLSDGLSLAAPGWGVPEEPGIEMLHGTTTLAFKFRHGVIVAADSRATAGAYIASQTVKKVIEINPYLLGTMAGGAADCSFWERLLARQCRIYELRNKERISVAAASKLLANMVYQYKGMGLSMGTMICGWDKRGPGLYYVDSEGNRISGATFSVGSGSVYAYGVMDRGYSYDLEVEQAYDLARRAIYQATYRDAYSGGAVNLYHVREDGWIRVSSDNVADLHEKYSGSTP
UniProt Q99436: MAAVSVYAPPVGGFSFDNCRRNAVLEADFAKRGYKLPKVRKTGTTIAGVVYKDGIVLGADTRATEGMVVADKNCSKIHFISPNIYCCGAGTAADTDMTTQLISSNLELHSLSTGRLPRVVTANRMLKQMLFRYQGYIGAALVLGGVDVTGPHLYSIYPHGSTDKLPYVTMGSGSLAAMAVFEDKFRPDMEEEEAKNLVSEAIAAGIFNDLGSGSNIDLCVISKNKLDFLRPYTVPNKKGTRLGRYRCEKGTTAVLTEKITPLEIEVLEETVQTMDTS

Target: T1, T2 20S proteasomes (Homo sapiens, UniProt P28072+P28074+Q99436)
T1 construct: 20S proteasomes were purified from 3*E+09 LcLs, T2 and T2.27 cells; endogenous in cells; host or cells: T2 (human T cell leukemia/B cell hybrid, lacking LMP2/LMP7); 20S purified from the cells
Experiment: In vitro digestion of synthetic gp10035-57 by T2 20S proteasomes, quantification of PSP and PCP by MS
Format: biochemical

Sequence	time to complete degradation of substrate (4 nmol of 23mer peptide substrate, T2 20S constitutive proteasomes) [h]	amount of PSP generated (from 4 nmol gp10035-57 completely degraded within 3 h by T2 20S constitutive proteasomes) [pmol]
VSRQLRTKAWNRQLYPEWTEAQR [gp10035-57]	≤ 3	
QLYPEWTEAVSRQL [gp10047-55/35-39, [QLYPEWTEA][VSRQ L]]		52.5 ± 29.3
